In US20240254229A1 (Molecular Partners, published 2024):
Where a chain is given by its changes, count along the chain named. Results are given in words; binding and its absence hold for the method and conditions named. Binding can be weak; no strength is given.

B1: DARPin® protein #6 (designed binder)
chain: DLGKKLLEAARAGQDDEVRILMANGADVNALDWLGHTPLHLAAYEGHLEIVEVLLKNGADVNAIDDNNGFTPLHLAAIDGHLEIVEVLLKNGADVNAQDKFGKTAFDISIDNGNEDLAEILQKAA
notes: CD123-specific domain
B2: DARPin® protein #63 (designed binder)
chain: DLGKKLLQAARAGQLDEVRELLKAGADVNAKDQYGRTPLHLAAIKGHLEIVEVLLKAGADVNAKDSLGYTPLHLAAVEGPLEIVEVLLKAGADVNAKDAYGQTPLHIAAAWGHLEIVEVLLKAVADVNAQDKSGKTPADLAARAGHQDIAEVLQKAA
notes: CD123-specific domain; screened as crude extract
B3: DARPin® protein #64 (designed binder)
chain: DLGWKLLDAAEIGQDDEVRILLAAGADVNAKDKQGITPLHIAAAHGHLEIVEVLLKAGADVNAKDEIGRTPLHLAAFKGHLEIVEVLLKAGADVNAQDIIGETPADLAAVRGHEDIAEVLQKAA
notes: as for B2
B4: DARPin® protein #34 (designed binder)
chain: DLGKKLLEAALEGQLDEVRELLKAGADVNAKDQEGYTPLHLAAALGHLEIVEVLLKAGADVNAKDSIGRTPLHLAAYKGHLEIVEVLLKAGADVNAQDLLGETPADLAAEQGHQDIAEVLQKAA
notes: CD123-specific ankyrin repeat domain; not shown: N-terminal His-tag
B5: DARPin® protein #35 (designed binder)
chain: B4 chain with L15D, Q114E
notes: as for B2

These binders were tested against biotinylated extracellular domains of cyno CD123 (uniprot ID G8F3K3), Fc format (cyno) (assay: crude extract HTRF, 6 nM biotinylated CD123).

binding, binds:
B1, B2, B3

The binders below were run against biotinylated extracellular domains of cyno CD123 (uniprot ID G8F3K3), Fc format (cyno) (assay: ribosome display selection, crude extract HTRF).

binding, binds:
B1, B4, B5
